# Percent effect of library compounds

The chains behind the UniProt entries cited, without tags or fusion partners. Residues count along the entry.
UniProt A4I591, 1-473: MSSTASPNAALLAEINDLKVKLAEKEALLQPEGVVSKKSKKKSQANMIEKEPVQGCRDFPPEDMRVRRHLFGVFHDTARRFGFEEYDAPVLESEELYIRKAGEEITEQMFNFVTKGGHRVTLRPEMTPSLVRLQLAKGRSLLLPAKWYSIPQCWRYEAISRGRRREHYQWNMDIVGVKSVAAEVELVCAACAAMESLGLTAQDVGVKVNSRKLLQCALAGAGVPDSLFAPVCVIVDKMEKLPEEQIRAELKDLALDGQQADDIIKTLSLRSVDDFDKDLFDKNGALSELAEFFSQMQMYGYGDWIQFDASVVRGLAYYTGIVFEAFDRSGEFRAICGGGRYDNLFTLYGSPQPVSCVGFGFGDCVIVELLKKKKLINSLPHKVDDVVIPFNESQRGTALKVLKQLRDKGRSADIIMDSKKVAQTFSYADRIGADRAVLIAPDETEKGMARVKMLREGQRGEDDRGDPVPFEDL

Values are the deposited “Percent Effect”, in %. The controls that fix the scale are not given in the record; negative values are as filed. The compounds are a random part of those screened. A dash means the value is not listed here; it may have been measured.

LiHisRS: 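Enzyme assay of histidyl-tRNA synthetase; the read-out is not stated. Target: Histidine-tRNA ligase, Leishmania infantum (UniProt A4I591). Compounds at 30 µM. The record gives no direction; compounds that gave an IC50 in retests scored well above the rest, so higher reads as stronger inhibition. The assay is labelled LdHisRS but filed under L. infantum. About 69,000 compounds were tested under these conditions; 0.6% (about 410) showed 50% or more at least once.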
Toxoplasma: 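Assay of Toxoplasma gondii numbers, read through their beta-galactosidase reporter with a colour substrate. Compounds at 10 µM. Higher reads as fewer parasites (inferred from which compounds were picked for retests). About 67,000 compounds were tested under these conditions; 0.38% (about 260) showed 50% or more at least once.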

| # | compound | LiHisRS | Toxoplasma |
|---|---|---|---|
| 1 | `CN(C)Cc1cc(-c2nccn2CCc2cccnc2)ccc1O` | 15.79 | -1.973 |
| 2 | `CN(C)[C@@H]1CN(C(=O)COc2cccc(F)c2)C[C@H]1O` | 21.74 | -14.62 |
| 3 | `c1ccc(CN2CCc3ncnc(C4CC4)c3CC2)cc1` | 20.21 | - |
| 4 | `CS(=O)(=O)CCCC(=O)Nc1cc(-c2cccc(F)c2F)n[nH]1` | 5.319 | 5.082 |
| 5 | `CC(NCc1c(C(C)C)nn(C)c1N1CCOCC1)C(N)=O` (stereo not drawn) | 4.255 | -17.97 |
| 6 | `Cc1nc(CCN(C)C(=O)C2COc3ccccc3C2)no1` (stereo not drawn) | 12.26 | -0.7107 |
| 7 | `Cc1ccc(C(=O)N2CCC3(CCN(Cc4ccccn4)C3=O)C2)cn1` (stereo not drawn) | 20.21 | -1.273 |
| 8 | `O=C(NCc1ccco1)N(CCCO)C1CCCc2ccccc21` (stereo not drawn) | 8.929 | -9.522 |
| 9 | `CC(Cc1ccco1)NC(=O)Nc1cccnc1` (stereo not drawn) | -5.505 | 11.43 |
| 10 | `NC(=O)c1cncc(-n2ccc(-c3cnccn3)n2)c1` | 16 | 7.184 |
| 11 | `CCc1nn(C)c(Cl)c1CN1C[C@@H](NC(=O)N(C)C)[C@H](C(C)C)C1` | 12.82 | -2.406 |
| 12 | `COCC(=O)N1CCC([C@@H]2C[C@H](C(F)(F)F)n3nc(C)cc3N2)CC1` | 15.79 | -3.79 |
| 13 | `Cn1nccc1C(=O)N1CCOC(Cc2cccc(C(F)(F)F)c2)C1` (stereo not drawn) | 6.796 | -1.762 |
| 14 | `CNC(=O)c1cccc(C2CNCCN2C(C)=O)c1` (stereo not drawn) | 11.11 | -1.473 |
| 15 | `O=C(c1cc(Cl)cc2cccnc12)N1CCN(CCO)CC1` | 8.333 | 1.565 |
| 16 | `CN(CCc1cnn(C)c1)C(=O)C1COc2ccccc2C1` (stereo not drawn) | -3.226 | -1.441 |
| 17 | `Cc1cccc(CN2C[C@H]3CC[C@@H]2CN(Cc2[nH]cnc2C)C3)n1` | 14.17 | - |
| 18 | `Cl.c1nc(CCC2CCCN2)cc(N2CCCCCC2)n1` (stereo not drawn) | - | -14.74 |
| 19 | `[H][C@]12C[C@@H](Cn3cncn3)N(C(C)=O)[C@@]1([H])CCN(C(=O)c1ccoc1)C2` | - | -3.291 |
| 20 | `CN1CCOC(CNC(=O)CCCc2ccccc2)C1` (stereo not drawn) | 11.4 | 0.459 |
| 21 | `CCNC(=O)NCc1ccnc(N(C)C)n1` | 6.667 | 2.92 |
| 22 | `CCC[C@H]1CN(Cc2cscn2)C[C@@H]1NC(=O)C1(COC)CCC1` | 14.29 | -0.5965 |
| 23 | `Fc1ccc(CNC2CCN(CCc3ccncc3)CC2)cc1F` | 0 | -4.099 |
| 24 | `COCCN1CCO[C@H]2[C@H](OCc3cccc(C)n3)CC[C@@H]21` | 22.22 | - |
| 25 | `Cn1cc(Br)c(=O)c(NS(=O)(=O)c2ccccc2F)c1` | -2.041 | 6.906 |
| 26 | `O=C(O)C(F)(F)F.[H][C@@]12CN(Cc3cncn3C)C[C@]1([H])OCCN2c1ncccn1` | - | -24.53 |
| 27 | `COc1ccc(CN2CCCC3(CCN(c4ccsc4)C3=O)C2)cc1.O=C(O)C(F)(F)F` (stereo not drawn) | - | -1.276 |
| 28 | `c1ccc2c3c([nH]c2c1)C(c1nn[nH]n1)CCC3` (stereo not drawn) | 7.692 | 7.93 |
| 29 | `CC(C)Nc1cccc(CC2CCN(C)C2)n1` (stereo not drawn) | 11.72 | - |
| 30 | `O=C1CC2(CCSC2)C(=O)N1CCCc1ccccc1` (stereo not drawn) | 7.937 | 4.307 |
| 31 | `CCN(CCC(=O)OC)C(=O)c1cccc(Cn2nc(C)cc2C)c1` | 1.695 | 1.494 |
| 32 | `CC(C)NC(=O)[C@@H]1CCO[C@@H]2CCN(c3ncccn3)C[C@H]21` | 11.32 | - |
| 33 | `COc1ccc(NC(C)c2nnnn2-c2ccccc2)cc1F` (stereo not drawn) | 22.22 | 15.06 |
| 34 | `CC(=O)Nc1cccc2c1ccn2CC(=O)NC(C)C` | 30.43 | -5.586 |
| 35 | `C=C(C)CN1CCC(NC(=O)NCCc2cccc(C(N)=O)c2)CC1` | 23.29 | -5.31 |
| 36 | `O=C(CN1CC(c2nc(-c3ccco3)no2)C1)NCCc1ccccc1.O=C(O)C(=O)O` | - | -14.13 |
| 37 | `Cc1nc(CN2CCC3(CCCO3)CCC2=O)no1` (stereo not drawn) | 12.5 | 2.261 |
| 38 | `O=C(NCc1ccco1)C1CCCN1Cc1nc(-c2ccco2)no1` (stereo not drawn) | 15.38 | 9.262 |
| 39 | `CC(Nc1nc(-c2ccccc2)nc2c1CCNCC2)c1nccs1` (stereo not drawn) | 19.67 | 26.12 |
| 40 | `CC1(NC(=O)Cc2csc(NC(=O)c3ccccc3)n2)CCS(=O)(=O)C1` (stereo not drawn) | 22.22 | 12.71 |
| 41 | `CCn1ccnc1CN1CCC(=O)N(CC2CC2)C(C(C)C)C1` (stereo not drawn) | 31.43 | 5.219 |
| 42 | `Cc1csc(C2CCCN(C(=O)c3ccc(=O)n(C)n3)C2)n1` (stereo not drawn) | -1.887 | -1.435 |
| 43 | `CS(=O)(=O)NC1CCN(C(=O)c2cc3ccccc3s2)C1` (stereo not drawn) | 13.49 | 11.75 |
| 44 | `O=C(O)c1cccnc1CN1CCCCC1CCc1ccccn1` (stereo not drawn) | 6.993 | -16.63 |
| 45 | `CN1CCN(CC2CCN(C(=O)CCC3CCCCC3)CC2)CC1` | 24.71 | 32.31 |
| 46 | `CC(=O)NCC(=O)N1CCc2c(CNc3ncccn3)cncc2C1.Cl` | - | 1.127 |
| 47 | `CC(C)CS(=O)(=O)NC(=O)c1ccc2c(c1)ncn2C` | 16.87 | -4.421 |
| 48 | `COCCN1CCN(CCS(=O)(=O)c2cccc(OC)c2)CC1` | 3.306 | -4.027 |
| 49 | `CC(C)CNC(=O)[C@H]1C[C@@H]2CN(Cc3cccnc3)C[C@H]1O2` | 10.26 | - |
| 50 | `COc1ccc(-c2cnc(NC(C)=O)[nH]2)cc1` | 15.25 | 0.8965 |
| 51 | `CCC(CC)c1cc(CNC(=O)N2CCC(CO)CC2)on1` | 4.918 | -50.72 |
| 52 | `Cc1cc(C(=O)N(C)Cc2ccoc2)c(NC(=O)C(C)(C)C)s1` | 4.167 | 6.404 |
| 53 | `Cn1c(=O)oc2ccc(Nc3ncc(C#N)cc3Cl)cc21` | 28.89 | -1.959 |
| 54 | `CCOCc1nc2c(c(N3CC=CC3)n1)CCN(Cc1ccco1)CC2` | 26.03 | 2.954 |
| 55 | `Cc1nnn2c1COCC(CNCc1nccs1)C2.O=C(O)C(F)(F)F` (stereo not drawn) | - | -13.4 |
| 56 | `COc1ccc(Cl)cc1-n1c(COC(C)C)n[nH]c1=O` | 5.128 | 3.156 |
| 57 | `Cn1cc(N2C[C@@H]3CN(Cc4ccoc4)C[C@@H]3C2=O)cn1` | 20.55 | - |
| 58 | `O=c1c(CN2CC3CCCN3C[C@@H]2CCO)coc2ccc(Cl)cc12` (stereo partly drawn) | 15.94 | -16.85 |
| 59 | `CC(C)c1cc(C(=O)N2CCCC(Cn3cc(CO)nn3)C2)on1` (stereo not drawn) | 6.452 | -23.3 |

The last 5 entries again:

* Cc1nnn2c1COCC(CNCc1nccs1)C2.O=C(O)C(F)(F)F (stereo not drawn) | Toxoplasma: -13.4%
* COc1ccc(Cl)cc1-n1c(COC(C)C)n[nH]c1=O | LiHisRS: 5.128%; Toxoplasma: 3.156%
* Cn1cc(N2C[C@@H]3CN(Cc4ccoc4)C[C@@H]3C2=O)cn1 | LiHisRS: 20.55%
* O=c1c(CN2CC3CCCN3C[C@@H]2CCO)coc2ccc(Cl)cc12 (stereo partly drawn) | LiHisRS: 15.94%; Toxoplasma: -16.85%
* CC(C)c1cc(C(=O)N2CCCC(Cn3cc(CO)nn3)C2)on1 (stereo not drawn) | LiHisRS: 6.452%; Toxoplasma: -23.3%

The values are deposited in ChEMBL (CHEMBL3988442, “University of Dundee, Small-Polar-MMV Screening Library” (2021)).